Numbering of substitutions follows the chain as printed. Names may count otherwise. Results are given in words; binding and its absence hold for the method and conditions named. In cells and extracts the contact can be indirect. Some entries that bind do so weakly or less than the wild type. Tags and fused reporters may be left off the sequences shown.

Assay [1] concerns the target PDGF receptor β (PDGFRβ), wild-type (UniProt P09619). Kind of assay: co-IP; PDGFRβ and Flag-tagged USP17 isoforms co-overexpressed in HEK293T, serum-starved, stimulated with PDGF-BB (20 ng/ml) for 10 min; PDGFRβ immunoprecipitated, eluates probed with Flag antibody.
The target is the same in assay [2]. Kind of assay: co-IP; Flag-HA-tagged DUB overexpressed together with PDGFRβ in 293T cells, starved and stimulated with PDGF-BB for indicated times; proteins immunoprecipitated 'as indicated' in the figure, eluates blotted for PDGFRβ and USP4 or USP17 (DUB3); mild lysis buffer (1% Triton X-100, 20 mM Tris, 150 mM NaCl, pH 7.5).

B1: full-length Flag-tagged USP17L22 (enzyme, UniProt D6RA61 1-530)
chain: MEDDSLYLGGEWQFNHFSKLTSSRPDAAFAEIQRTSLPEKSPLSCETRVDLCDDLAPVARQLAPREKLPLSSRRPAAVGAGLQNMGNTCYVNASLQCLTYTPPLANYMLSREHSQTCHRHKGCMLCTMQAHITRALHNPGHVIQPSQALAAGFHRGKQEDAHEFLMFTVDAMKKACLPGHKQVDHHSKDTTLIHQIFGGYWRSQIKCLHCHGISDTFDPYLDIALDIQAAQSVQQALEQLVKPEELNGENAYHCGVCLQRAPASKTLTLHTSAKVLILVLKRFSDVTGNKIAKNVQYPECLDMQPYMSQQNTGPLVYVLYAVLVHAGWSCHNGHYFSYVKAQEGQWYKMDDAEVTASSITSVLSQQAYVLFYIQKSEWERHSESVSRGREPRALGAEDTDRRATQGELKRDHPCLQAPELDEHLVERATQESTLDHWKFLQEQNKTKPEFNVRKVEGTLPPDVLVIHQSKYKCGMKNHHPEQQSSLLKLSSTTPTHQESMNTGTLASLRGRARRSKGKNKHSKRALLVCQ
As for B1, the binding result in assay [1] is “binds”.

B2: full-length Flag-tagged USP17L20 isoform (USP17L22 with K488N and Q310P) (enzyme, UniProt D6RA61 1-530)
chain: B1 chain with Q310P, K488N
As for B2, the binding result in assay [1] is given as “binds”.

B3: full-length Flag-tagged USP17L11 isoform (USP17L22 with K488N and Q310T) (enzyme, UniProt D6RA61 1-530)
chain: B1 chain with Q310T, K488N
Regarding B3, the binding entry in assay [1] is given as “binds”.

B4: Flag-HA-tagged USP4 (enzyme, UniProt Q13107 1-963)
chain: MAEGGGCRERPDAETQKSELGPLMRTTLQRGAQWYLIDSRWFKQWKKYVGFDSWDMYNVGEHNLFPGPIDNSGLFSDPESQTLKEHLIDELDYVLVPTEAWNKLLNWYGCVEGQQPIVRKVVEHGLFVKHCKVEVYLLELKLCENSDPTNVLSCHFSKADTIATIEKEMRKLFNIPAERETRLWNKYMSNTYEQLSKLDNTVQDAGLYQGQVLVIEPQNEDGTWPRQTLQSKSSTAPSRNFTTSPKSSASPYSSVSASLIANGDSTSTCGMHSSGVSRGGSGFSASYNCQEPPSSHIQPGLCGLGNLGNTCFMNSALQCLSNTAPLTDYFLKDEYEAEINRDNPLGMKGEIAEAYAELIKQMWSGRDAHVAPRMFKTQVGRFAPQFSGYQQQDSQELLAFLLDGLHEDLNRVKKKPYLELKDANGRPDAVVAKEAWENHRLRNDSVIVDTFHGLFKSTLVCPECAKVSVTFDPFCYLTLPLPLKKDRVMEVFLVPADPHCRPTQYRVTVPLMGAVSDLCEALSRLSGIAAENMVVADVYNHRFHKIFQMDEGLNHIMPRDDIFVYEVCSTSVDGSECVTLPVYFRERKSRPSSTSSASALYGQPLLLSVPKHKLTLESLYQAVCDRISRYVKQPLPDEFGSSPLEPGACNGSRNSCEGEDEEEMEHQEEGKEQLSETEGSGEDEPGNDPSETTQKKIKGQPCPKRLFTFSLVNSYGTADINSLAADGKLLKLNSRSTLAMDWDSETRRLYYDEQESEAYEKHVSMLQPQKKKKTTVALRDCIELFTTMETLGEHDPWYCPNCKKHQQATKKFDLWSLPKILVVHLKRFSYNRYWRDKLDTVVEFPIRGLNMSEFVCNLSARPYVYDLIAVSNHYGAMGVGHYTAYAKNKLNGKWYYFDDSNVSLASEDQIVTKAAYVLFYQRRDDEFYKTPSLSSSGSSDGGTRPSSSQQGFGDDEACSMDTN
On to B4, for which the binding result in assay [2] is reported as “binds”.

Source of the values: publication PMC8782881.
